Measurements as given in PubChem BioAssay AID1532 (PCMD, 2009).
Some of the results follow.

tested on: RmlC (dTDP-4-dehydrorhamnose 3,5-epimerase) and RmlD (dTDP-4-dehydrorhamnose reductase), coupled enzyme assay; assay: RmlC and RmlD coupled enzyme inhibitors, primary screen, biochemical, 384-well, compound mixtures, retest (AID 1532); details: 384-well mixture HTS, measured here: mean retest inhibition, at 5.5 µM, stronger effect = higher value

SMILES	inhibition [%]
O=C(NCC1(N2CCOCC2)CCCCC1)c1cc(=O)[nH]c2ccccc12	-3.49
O=C(OC1CN2CCC1CC2)C1c2ccccc2Oc2ccccc21 (configuration not stated)	-10.4
